# Some of the results follow.
# B1: Epa19 (Candida glabrata) (protein)
# chain: MGSSHHHHHHSSGLVPRGSHMASSKDPTRFPIGCSPQVLKTQPGLAVKLYSYGHPVPGCSYITYQYPDFPRSGYKKERKLADITGVNGKIDIDLKPNDPCRVLTGHLPSNYNYPDTLTYTNFTMILYGYFQPKVTGYHTFNLEADDLLFMNLGAGNAFDCCKAESTLDNFGNYQSYSLWGSDYAKANITVFLVSGVYYPIRLFYVNRDNNAVIDFSFTTEFDKEKVHDFTSYFFSASDGEQCPGSV
# Legend:
# Test in all cases: glycan array binding signal (z-score within array); higher = stronger binding
# Conditions in all cases: glycan notation: IUPAC condensed, linker removed
# [1] = molecular target: Man(a1-3)[Man(a1-6)]Man(a1-6)[Man(a1-2)Man(a1-3)]Man(b1-4)GlcNAc(b1-4)GlcNAc
# Method in brief: (§1)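 Columns mapping to the same glycan were averaged after glycan names were converted to IUPAC-condensed notation. The data come from 3228 arrays in the Consortium for Functional Glycomics database, limited to those with an available protein sequence. Binding is reported as a within-array Z-score averaged across arrays of one protein sequence and across linkers.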
# [2] = molecular target: Man(a1-3)[Man(a1-6)]Man(a1-6)[Man(a1-3)]Man
# Method in brief: as §1
# [3] = molecular target: Man(a1-3)[Man(a1-6)]Man(a1-6)[Man(a1-3)]Man(b1-4)GlcNAc(b1-4)GlcNAc
# Method in brief: as §1
# [4] = molecular target: Man(a1-3)[Man(a1-6)]Man(b1-4)GlcNAc(b1-4)GlcNAc
# Method in brief: as §1
# [5] = molecular target: Man(a1-3)[Man(a1-6)]Man(b1-4)GlcNAc(b1-4)[Fuc(a1-6)]GlcNAc
# Method in brief: as §1
# [6] = molecular target: Man(a1-6)Man
# Method in brief: as §1
# [7] = molecular target: Man(b1-4)GlcNAc
# Method in brief: as §1
# [8] = molecular target: MurNAc(b1-4)GlcNAc
# Method in brief: as §1
# [9] = molecular target: Neu5Ac(a2-3)Gal
# Method in brief: as §1
# [10] = molecular target: Neu5Ac(a2-3)Gal(b1-3)GalNAc
# Method in brief: as §1
# [11] = molecular target: Neu5Ac(a2-3)Gal(b1-3)GalNAc(b1-3)Gal(a1-4)Gal(b1-4)Glc
# Method in brief: as §1
# [12] = molecular target: Neu5Ac(a2-3)Gal(b1-3)GalNAc(b1-4)Gal(b1-4)Glc
# Method in brief: as §1
# [13] = molecular target: Neu5Ac(a2-3)Gal(b1-3)GalNAc(b1-4)[Neu5Ac(a2-3)]Gal(b1-4)Glc
# Method in brief: as §1
# [14] = molecular target: Neu5Ac(a2-3)Gal(b1-3)GalNAc(b1-4)[Neu5Ac(a2-8)Neu5Ac(a2-3)]Gal(b1-4)Glc
# Method in brief: as §1
# [15] = molecular target: Neu5Ac(a2-3)Gal(b1-3)GalNAc6S
# Method in brief: as §1
# [16] = molecular target: Neu5Ac(a2-3)Gal(b1-3)GlcNAc
# Method in brief: as §1
# [17] = molecular target: Neu5Ac(a2-3)Gal(b1-3)GlcNAc(b1-2)Man
# Method in brief: as §1
# [18] = molecular target: Neu5Ac(a2-3)Gal(b1-3)GlcNAc(b1-2)Man(a1-3)[GlcNAc(b1-4)][Neu5Ac(a2-3)Gal(b1-3)GlcNAc(b1-2)Man(a1-6)]Man(b1-4)GlcNAc(b1-4)GlcNAc
# Method in brief: as §1
# [19] = molecular target: Neu5Ac(a2-3)Gal(b1-3)GlcNAc(b1-2)Man(a1-3)[Neu5Ac(a2-3)Gal(b1-3)GlcNAc(b1-2)Man(a1-6)]Man(b1-4)GlcNAc(b1-4)GlcNAc
# Method in brief: as §1
# [20] = molecular target: Neu5Ac(a2-3)Gal(b1-3)GlcNAc(b1-2)[Neu5Ac(a2-3)Gal(b1-3)GlcNAc(b1-4)]Man(a1-6)[Neu5Ac(a2-3)Gal(b1-3)GlcNAc(b1-2)Man(a1-3)]Man(b1-4)GlcNAc(b1-4)GlcNAc
# Method in brief: as §1
# [21] = molecular target: Neu5Ac(a2-3)Gal(b1-3)GlcNAc(b1-3)Gal(b1-3)GlcNAc
# Method in brief: as §1
# [22] = molecular target: Neu5Ac(a2-3)Gal(b1-3)GlcNAc(b1-3)Gal(b1-4)GlcNAc
# Method in brief: as §1
# [23] = molecular target: Neu5Ac(a2-3)Gal(b1-3)GlcNAc(b1-3)GalNAc
# Method in brief: as §1
# [24] = molecular target: Neu5Ac(a2-3)Gal(b1-3)GlcNAc(b1-6)GalNAc
# Method in brief: as §1
# [25] = molecular target: Neu5Ac(a2-3)Gal(b1-3)GlcNAc6S
# Method in brief: as §1
# [26] = molecular target: Neu5Ac(a2-3)Gal(b1-3)[Fuc(a1-4)]GlcNAc
# Method in brief: as §1
# [27] = molecular target: Neu5Ac(a2-3)Gal(b1-3)[Fuc(a1-4)]GlcNAc(b1-3)Gal(b1-3)[Fuc(a1-4)]GlcNAc
# Method in brief: as §1
# [28] = molecular target: Neu5Ac(a2-3)Gal(b1-3)[Fuc(a1-4)]GlcNAc(b1-3)Gal(b1-4)[Fuc(a1-3)]GlcNAc
# Method in brief: as §1
# [29] = molecular target: Neu5Ac(a2-3)Gal(b1-3)[GlcNAc(b1-6)]GalNAc
# Method in brief: as §1
# [30] = molecular target: Neu5Ac(a2-3)Gal(b1-3)[Neu5Ac(a2-6)]GalNAc
# Method in brief: as §1
# [31] = molecular target: Neu5Ac(a2-3)Gal(b1-3)[Neu5Ac(a2-6)]GlcNAc(b1-3)[Fuc(a1-3)[Gal(b1-4)]GlcNAc(b1-6)]Gal(b1-4)Glc
# Method in brief: as §1
# [32] = molecular target: Neu5Ac(a2-3)Gal(b1-3)]Neu5Ac(a2-3)Gal(b1-4)]GlcNAc
# Method in brief: as §1
# [33] = molecular target: Neu5Ac(a2-3)Gal(b1-4)Glc
# Method in brief: as §1
# [34] = molecular target: Neu5Ac(a2-3)Gal(b1-4)GlcNAc
# Method in brief: as §1
# [35] = molecular target: Neu5Ac(a2-3)Gal(b1-4)GlcNAc(b1-2)Man
# Method in brief: as §1
# [36] = molecular target: Neu5Ac(a2-3)Gal(b1-4)GlcNAc(b1-2)Man(a1-3)[GlcNAc(b1-4)][Neu5Ac(a2-3)Gal(b1-4)GlcNAc(b1-2)Man(a1-6)]Man(b1-4)GlcNAc(b1-4)GlcNAc
# Method in brief: as §1
# [37] = molecular target: Neu5Ac(a2-3)Gal(b1-4)GlcNAc(b1-2)Man(a1-3)[Neu5Ac(a2-3)Gal(b1-4)GlcNAc(b1-2)Man(a1-6)]Man(b1-4)GlcNAc(b1-4)GlcNAc
# Method in brief: as §1
# [38] = molecular target: Neu5Ac(a2-3)Gal(b1-4)GlcNAc(b1-2)Man(a1-3)[Neu5Ac(a2-3)Gal(b1-4)GlcNAc(b1-2)Man(a1-6)]Man(b1-4)GlcNAc(b1-4)[Fuc(a1-6)]GlcNAc
# Method in brief: as §1
binder,measurement,setting,value
B1,glycan array binding signal (z-score),[1],-0.076
same,glycan array binding signal (z-score),[2],-0.294
same,glycan array binding signal (z-score),[3],-0.339
same,glycan array binding signal (z-score),[4],-0.163
same,glycan array binding signal (z-score),[5],1.25
same,glycan array binding signal (z-score),[6],0.479
same,glycan array binding signal (z-score),[7],0.055
same,glycan array binding signal (z-score),[8],-0.114
same,glycan array binding signal (z-score),[9],-0.796
same,glycan array binding signal (z-score),[10],0.466
same,glycan array binding signal (z-score),[11],-0.268
same,glycan array binding signal (z-score),[12],-0.349
same,glycan array binding signal (z-score),[13],-0.086
same,glycan array binding signal (z-score),[14],-0.7
same,glycan array binding signal (z-score),[15],-0.152
same,glycan array binding signal (z-score),[16],-0.364
same,glycan array binding signal (z-score),[17],-1.47
same,glycan array binding signal (z-score),[18],0.855
same,glycan array binding signal (z-score),[19],-0.079
same,glycan array binding signal (z-score),[20],1.93
same,glycan array binding signal (z-score),[21],-1.34
same,glycan array binding signal (z-score),[22],-0.793
same,glycan array binding signal (z-score),[23],-0.142
same,glycan array binding signal (z-score),[24],0.104
same,glycan array binding signal (z-score),[25],0.548
same,glycan array binding signal (z-score),[26],-0.017
same,glycan array binding signal (z-score),[27],-0.524
same,glycan array binding signal (z-score),[28],0.414
same,glycan array binding signal (z-score),[29],-0.681
same,glycan array binding signal (z-score),[30],-0.021
same,glycan array binding signal (z-score),[31],-0.06
same,glycan array binding signal (z-score),[32],1.09
same,glycan array binding signal (z-score),[33],0.954
same,glycan array binding signal (z-score),[34],-0.276
same,glycan array binding signal (z-score),[35],1.93
same,glycan array binding signal (z-score),[36],-0.125
same,glycan array binding signal (z-score),[37],-0.563
same,glycan array binding signal (z-score),[38],-0.489

# Fetched one by one from above, two records:
binder,measurement,setting,value
B1,glycan array binding signal (z-score),[28],0.414
same,glycan array binding signal (z-score),[11],-0.268

# — the supplement of paper PMC8728848
